Measured values from the supplement of paper PMC10338343.
± gives the standard deviation. This is a selection; strong and weak results do not stand in their true shares. Many of these values have a large error.

What follows are sequences tested on MILI (PIWIL2) piRISC loaded with piRNA #2 (26 nt) (assay: pre-steady-state target cleavage rate (min^-1); MIWI and MILI are mouse PIWI proteins and EfPiwi is from a freshwater sponge; tags in brackets are library labels; higher = faster piRNA-guided slicing of the target). Conditions: guide: piRNA #2 5'p-UUAGGUAACCCAGUAGAUCCAGAGGA; auxiliary factor: 500 nM mouse GTSF1.
Procedure, shortened: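 Using HEPES–potassium acetate buffer at 33 °C, 1 nM active affinity-purified piRISC with a single synthetic guide was mixed with 0.1 nM transcribed, DNA-blocked target RNA library for 0–8 or 0–960 min, with or without 500 nM GTSF1 partner protein. Uncleaved targets were sequenced and normalised to depth and to weakly complementary targets, and three trials were pooled with k3 capped at 0.0001 min^-1. A burst-and-steady-state fit gave the pre-steady-state cleavage rate.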

| Sequence | pre-steady-state target cleavage rate |
| --- | --- |
| CUUAAGGACUGCAUCUACUGGGUUACCAAA | 0.00166 ± 0.013 |
| CUUAAGCUCUGGAUCUACAUGGGUUACCUAA | 0.000147 ± 0.035 |
| CUUAAGGAGACCAUCUACUGGGUUACCUAU [g2:g18:cont:t1U] | 0.00168 ± 0.0043 |
| CUUAAGGAGACGAUCUACUGGCUAACCUAA | 0.000132 ± 0.048 |
| CUUAAGCUCUGGAUCUACUGCGAUACCUAA | 0.000342 ± 0.025 |
| CUUAAGGAGACCUACUACUGGGUGUACCUAA | 0.000261 ± 0.041 |
| CUUAAGGAGAGGGUCUACUGGGUUACCUAA | 0.00196 ± 0.0043 |
| CUUAAGGAGACCAUCUACUGCGUUACCUAA | 0.00128 ± 0.0039 |
| CUUAAGGUCUGGAUCUACUGGAGUUACCUAA | 0.00106 ± 0.012 |
| CUUAUCCACUGGAUCUACUGGGUUAGCUAA | 0.00417 ± 0.0052 |
| CUUAAGGAGACCUACUUCUGCGUUACCUAA | 0.000361 ± 0.011 |
| CUUAAGGAGACCUUCUACUGCCUUACCUAA | 0.000657 ± 0.0081 |
| CUUAAGGUCAGGAUCUACUGGGUUACGUAA | 0.00305 ± 0.0094 |
| CUUAAGGAGACCUUCUACUGGGUAACCUAA | 0.000547 ± 0.01 |
| CUUAAGGAGACCUUCUACUGGCAUACCUAA | 0.000117 ± 0.041 |
| CUUAAGGAGACCUUCUACUGGAUUACCUAA | 0.000542 ± 0.019 |
| CUUAAGGAGACCUAGAUCUGCCUUACCUAA | 0.000103 ± 0.043 |
| CUUAAGGAGACCUUCUACUGGGUUACCAA | 0.00066 ± 0.013 |
| CUUAACCUCUGGAUCUACUGGGUUUCCUAA | 0.224 ± 0.062 |
| CUUAAGGACUGGAUCAACUGCGUUACCUAA | 0.00143 ± 0.021 |
| CUUAAGGAGACCUUCUACUGGGUUAACUAA | 0.000255 ± 0.035 |
| CUUAAGGAGUGGAACUACUGCGUUACCUAA | 0.000522 ± 0.025 |
| CUUAAGGAGACGUUCUACUGGGUAACCUAA | 0.000694 ± 0.013 |
| CUUAAGGAGACGAUACUACUGGGUUACCUAA | 0.000115 ± 0.034 |

| Sequence | pre-steady-state target cleavage rate |
| --- | --- |
| CUUAAGGACUGGAUCUACUGCGUUUCCUAA | 0.000394 ± 0.037 |
| CUUAUCCUCUGGAUCUACUGGCUUACCUAA | 0.0034 ± 0.0034 |
| CUUAAGGAGAGGAUCAACUGGGUUACCUAA | 0.00307 ± 0.0032 |
| CUUAAGCUCUGGAUCUACUGCGUUAGCUAA | 0.00115 ± 0.0099 |
| CUUAAGGAGACGAUCUACUGAGUUACCUAA | 0.00282 ± 0.0034 |
| CUUAAGGAGUGCAUCUACUGGGUUAGCUAA | 0.00119 ± 0.0082 |
| CUUAAGGAGUGGUUCUACUGCGUUACCUAA | 0.00235 ± 0.0064 |
| CUUAAGGAGACCAACUACUGGGUUACCUAA | 0.00106 ± 0.0072 |
| CUUAAGGACUGGUUCAACUGGGUUACCUAA | 0.00369 ± 0.01 |
| CUUAAGGAGACCUUCAACUGGGUUAGCUAA | 0.000102 ± 0.057 |
| CUUAACCUCUGGUACUACUGGGUUACCUAA | 0.256 ± 0.074 |
| CUUAAGGACUGGAUCAACUGGGUUACGUAA | 0.0032 ± 0.01 |
| CUUAAGGAGAGGAUCUACUGGGAUACCUUA | 0.000201 ± 0.03 |
| CUUAUCCUCUGGAUCCUACUGGGUUACCUAA | 0.0665 ± 0.018 |
| CUUAAGCUCUGGAUCUAGUGCGUUACCUAA | 0.0017 ± 0.0059 |
| CUUAAGGAGUGCAUCUUCUGGGUUACCUAA | 0.00194 ± 0.0058 |
| CUUAAGGAGACCUUCUACUGGGAUAGCUAA | 0.000371 ± 0.02 |
| CUUAAGGAGACGAUCUACUGCGGUUACCUAA | 0.0004 ± 0.026 |
| CUUAUCCUCUGGAUCUACUGGGUUCACCUAA | 0.0872 ± 0.017 |
| CUUAAGGAGACGAUCUACUCGGUUACCUAA | 0.001 ± 0.013 |
| CUUAAGGAGACCAUCUACUGGGUACCUAA | 0.000116 ± 0.036 |
| CUUAAGGAGACCUAGUACACCGUUACCUAA | 0.000315 ± 0.044 |
| CUUAUCCUCUGGAUCUACUGGCGUUACCUAA | 0.00253 ± 0.0048 |
| CUUAAGGAGACGUUCUACUGGGUUUCCUAA | 0.000897 ± 0.012 |

No new results follow: entries from further up.

| Sequence | pre-steady-state target cleavage rate |
| --- | --- |
| CUUAUCCUCUGGAUCUACUGGCUUACCUAA | 0.0034 ± 0.0034 |
| CUUAAGGAGAGGAUCAACUGGGUUACCUAA | 0.00307 ± 0.0032 |
| CUUAAGCUCUGGAUCUACUGCGUUAGCUAA | 0.00115 ± 0.0099 |
| CUUAAGGAGACGAUCUACUGAGUUACCUAA | 0.00282 ± 0.0034 |
| CUUAAGGAGUGCAUCUACUGGGUUAGCUAA | 0.00119 ± 0.0082 |
| CUUAAGGAGUGGUUCUACUGCGUUACCUAA | 0.00235 ± 0.0064 |
| CUUAAGGAGACCAACUACUGGGUUACCUAA | 0.00106 ± 0.0072 |
| CUUAAGGACUGGUUCAACUGGGUUACCUAA | 0.00369 ± 0.01 |
| CUUAAGGAGACCUUCAACUGGGUUAGCUAA | 0.000102 ± 0.057 |
| CUUAACCUCUGGUACUACUGGGUUACCUAA | 0.256 ± 0.074 |
| CUUAAGGACUGGAUCAACUGGGUUACGUAA | 0.0032 ± 0.01 |
| CUUAAGGAGAGGAUCUACUGGGAUACCUUA | 0.000201 ± 0.03 |
| CUUAUCCUCUGGAUCCUACUGGGUUACCUAA | 0.0665 ± 0.018 |
| CUUAAGCUCUGGAUCUAGUGCGUUACCUAA | 0.0017 ± 0.0059 |
| CUUAAGGAGUGCAUCUUCUGGGUUACCUAA | 0.00194 ± 0.0058 |
| CUUAAGGAGACCUUCUACUGGGAUAGCUAA | 0.000371 ± 0.02 |
| CUUAAGGAGACGAUCUACUGCGGUUACCUAA | 0.0004 ± 0.026 |
| CUUAUCCUCUGGAUCUACUGGGUUCACCUAA | 0.0872 ± 0.017 |
| CUUAAGGAGACGAUCUACUCGGUUACCUAA | 0.001 ± 0.013 |
| CUUAAGGAGACCAUCUACUGGGUACCUAA | 0.000116 ± 0.036 |

(continued)

| Sequence | pre-steady-state target cleavage rate |
| --- | --- |
| CUUAAGGAGUGGAUCUACUGGGUUACAUAA | 0.00313 ± 0.0045 |
| CUUAAGGAGACCUUCUACUGGGUUUCCAAA | 0.000514 ± 0.016 |
| CUUAAGGAGACCUAGUAGUGGGUUACCUAA | 0.000179 ± 0.026 |
| CUUAAGGAGAGGAUCUACUGGGAAUCCUAA | 0.000135 ± 0.034 |
| CUUAAGCUCUGGAUCAUACUGGGUUACCUAA | 0.000822 ± 0.011 |
| CUUAAGGAGACCAACUACUGGGUUACGUAA | 0.00048 ± 0.018 |
| CUUAUCCUCUGGAUCUACUCCGUUACCUAA | 0.000269 ± 0.027 |
| CUUAAGGAGUGGAUCUACAUGGGUUACCUAA | 0.000336 ± 0.021 |
| CUUAAGGACUGGAUCUACUGGGUUUGCUAA | 0.000457 ± 0.04 |
| CUUAAGGAGACCUAGAUGAGGGUUAACCUAA | 0.00056 ± 0.012 |
| CUUAAGGAGUGGAUCAUCUGGGUUACCUAA | 0.00162 ± 0.007 |
| CUUAAGGAGAGGAUCUACUGGGUUAGCUAA | 0.000303 ± 0.045 |
| CUUAAGCUCUGGAUCUACAGGCUUACCUAA | 0.00236 ± 0.0058 |
| CUUAACCUCUGGAUCUACUGCGUUUCCUAA | 0.00295 ± 0.0053 |
| CUUAUCCUCUGGAUCUUCUCGGUUACCUAA | 0.00253 ± 0.0045 |
| CUUAAGGAGACGAUCUACUGGAGUUACCUAA | 0.00178 ± 0.0056 |
| CUUAAGGAGACCUUCUACUGGGUUACCUCAA | 0.0009 ± 0.011 |
| CUUAAGGAGACGAUCUAACUGGGUUACCUAA | 0.000451 ± 0.0075 |
| CUUAAGGAGACCUUCUACUGGGUUACGCUAA | 0.000395 ± 0.023 |
| CUUAAGGAGACCAUCUACUGGGUUAACCUAA | 0.000772 ± 0.01 |
| CUUAUCCUCUGGAUCUACUGGGUUUCCAAA | 0.134 ± 0.047 |
| CUUAAGGAGACCUAGAUGUGGGUUACCAAA | 0.000308 ± 0.021 |
| CUUAAGGAGACCAUCUACUGGGAAACCUAA | 0.000528 ± 0.015 |
| CUUAAGGACUGGAUCUACUGGGUAUGCUAA | 0.000244 ± 0.038 |
